In all, about 330,000 compounds went through this assay and about 100 (0.03%) were called active. The inconclusive results got no clear call from the source; some entries with a clear call stand among them for comparison. The call rests on the fitted dose curve; in most records, active means well fitted inhibition curve with a large enough effect; inconclusive means small, poorly fitted or top-dose-only effect; inactive means flat fitted curve, though single readings scatter. Potencies beside an inconclusive call are fits to weak or partial responses and may not hold up.
tested on: Chaperonin Mm-Cpn (Methanococcus maripaludis); test: Inhibitors of TCP-1 ring complex (TRiC) of Methanococcus maripaludis (MmCpn): qHTS; settings: purified Mm-Cpn ATPase, ADP Transcreener TR-FRET; further: nearly all actives have a fitted effect of over 80% in size;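 on Potency: enzyme at 25 nM with ATP substrate at 10 µM during the reaction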
How it was run: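 ATP (10 uM final) was added to archaeal chaperonin (25 nM final) after 10 min exposure to test compound at 37°C; after 30 min further incubation, ADP was detected by competitive TR-FRET.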
Potency means the concentration at half of the fitted maximal effect.

SMILES	Potency
CC(C)Cn1c(C(C)C)nc([N+](=O)[O-])c1Sc1ccc(Cl)cn1	inactive
COc1ccc(NC(=S)Nc2ccc(C)c(Cl)c2)cc1OC	inconclusive: 89.1 µM [inhibitor, single point]
O=C(O)Cn1c(=O)c2c3c(sc2n(Cc2ccc(F)cc2)c1=O)CCCC3	inconclusive: 44.7 µM [inhibitor, single point]
COC(=O)C(C)NC(=O)C(C)NC(=O)OCc1ccccc1 (stereo not drawn)	inconclusive: 100 µM [inhibitor, single point]
COCC(=O)n1nc(-c2ccccc2)nc1NCc1ccccc1	inactive
COc1ccc(N=C2SCC(c3ccc([N+](=O)[O-])cc3)=NN2CCO)cc1	inactive
CNC(=O)C(=O)NCCN1CCN(C(=O)c2ccc([N+](=O)[O-])cc2)CC1	inconclusive: 89.1 µM [inhibitor, single point]
CCOC(=O)c1cc(-c2nnc(-c3ccc(Oc4ccccc4)cc3)o2)c(C)nc1C	inactive
O=C(CCl)Nc1ccc(N=Nc2ccccc2)cc1	inactive
COc1ccc(/C=C2\CCC(C3CCCC3)C2=O)cc1 (stereo not drawn)	inactive
Cc1ccc(C(=O)c2c3ccc(C(F)(F)F)cc3[n+]([O-])n2CCC(N)=O)cc1	inactive
CCOC(=O)c1snc(-c2ccc(F)cc2)c1N	inconclusive: 22.4 µM [inhibitor, single point]
Cn1c(Cc2cccs2)nnc1SCC(=O)N1CCCc2ccccc21	inactive
N#C/C(=C\c1ccc(Cl)cc1)c1nc2ncccc2[nH]1	inactive
Cc1ccc(C)c2sc(NC(=O)c3ccc(N4C(=O)CCC4=O)cc3)nc12	inconclusive: 100 µM [inhibitor, single point]
CC(C)CN(CC(C)C)c1nc(N)c(C#N)c(CC#N)c1C#N	inconclusive: 141 µM [inhibitor, partial curve, poor fit]
COc1ccc(Sc2nc3ccccc3n3c(C(F)(F)F)nnc23)cc1	inconclusive: 100 µM [inhibitor, single point]
CN(C)c1ccc(S(=O)(=O)N2CCCCC2)cc1NC(=O)CCNC(=O)c1ccc(Cl)cc1	inconclusive: 28.2 µM [inhibitor, single point]
COc1ccc(Cl)cc1C(=O)Nn1c(-c2cccs2)nc2ccccc2c1=O	inconclusive: 100 µM [inhibitor, single point]
Cc1onc(-c2ccccc2Cl)c1C(=O)NC1CCCCCC1	inactive
COCCN1Cc2cccc(C(=O)NCCc3ccccc3)c2C1=O	inconclusive: 63.1 µM [inhibitor, partial curve, poor fit]
COC(=O)c1ccc(NC(=O)CSc2nnc(-c3ccncc3)n2C)cc1	inconclusive: 20 µM [inhibitor, single point]
O=C(CSc1nnc(CNC(=O)c2c(F)cccc2Cl)o1)NCc1ccccc1	inconclusive: 100 µM [inhibitor, single point]

Of the compounds above, these have four or more nitrogen atoms.
SMILES	Potency
CC(C)Cn1c(C(C)C)nc([N+](=O)[O-])c1Sc1ccc(Cl)cn1	inactive
COCC(=O)n1nc(-c2ccccc2)nc1NCc1ccccc1	inactive
COc1ccc(N=C2SCC(c3ccc([N+](=O)[O-])cc3)=NN2CCO)cc1	inactive
CNC(=O)C(=O)NCCN1CCN(C(=O)c2ccc([N+](=O)[O-])cc2)CC1	inconclusive: 89.1 µM [inhibitor, single point]
Cn1c(Cc2cccs2)nnc1SCC(=O)N1CCCc2ccccc21	inactive
N#C/C(=C\c1ccc(Cl)cc1)c1nc2ncccc2[nH]1	inactive
CC(C)CN(CC(C)C)c1nc(N)c(C#N)c(CC#N)c1C#N	inconclusive: 141 µM [inhibitor, partial curve, poor fit]
COc1ccc(Sc2nc3ccccc3n3c(C(F)(F)F)nnc23)cc1	inconclusive: 100 µM [inhibitor, single point]
CN(C)c1ccc(S(=O)(=O)N2CCCCC2)cc1NC(=O)CCNC(=O)c1ccc(Cl)cc1	inconclusive: 28.2 µM [inhibitor, single point]
COC(=O)c1ccc(NC(=O)CSc2nnc(-c3ccncc3)n2C)cc1	inconclusive: 20 µM [inhibitor, single point]
O=C(CSc1nnc(CNC(=O)c2c(F)cccc2Cl)o1)NCc1ccccc1	inconclusive: 100 µM [inhibitor, single point]

(next part)

SMILES	Potency
O=C(CCc1nc2ccccc2s1)N1CCN(c2ccccc2)CC1	inconclusive: 12.6 µM [inhibitor, single point]
COc1cccc(N2C(=O)CC(N3CCN(S(=O)(=O)c4ccccc4)CC3)C2=O)c1 (stereo not drawn)	inconclusive: 89.1 µM [inhibitor, single point]
CC(=O)Nc1ccc(-c2ccnc(-c3ccc(NC(C)=O)cc3)n2)cc1	inconclusive: 112 µM [inhibitor, single point]
CC(C)(C)Cc1nnc(NC(=O)c2cc(-c3ccccc3)nc3ccccc23)s1	inconclusive: 100 µM [inhibitor, partial curve, poor fit]
CCOc1ccc(/C=C2\CCc3ccccc3C2=O)cc1	inconclusive: 15.8 µM [inhibitor, single point]
COC(=O)c1ccc(CSc2nc3ccccc3c(=O)n2-c2cccc(OC)c2)o1	inconclusive: 282 µM [inhibitor, partial curve, poor fit]
O=C(CN1C(=O)CCC1=O)c1ccc(-c2ccccc2)cc1	inconclusive: 100 µM [inhibitor, single point]
COc1cccc2sc3cc(C#Cc4ccccn4)ccc3c(=O)c12	inactive
COCCn1c(SCC(=O)NCc2ccco2)nc2cccnc21	inconclusive: 11.2 µM [inhibitor, single point]
COc1ccc(-c2c(C#Cc3ccccc3)c3ccccc3n2C)cc1	inconclusive: 44.7 µM [inhibitor, partial curve, poor fit]
COc1cc(OC)cc(-c2sc3ccc(OC)cc3c2-c2ccc(O)cc2)c1	inconclusive: 112 µM [inhibitor, partial curve, poor fit]
O=C(c1ccc(Cl)cc1)C1CCCN(C(=O)/C=C/c2ccccn2)C1 (stereo not drawn)	inconclusive: 50.1 µM [inhibitor, single point]
CC(C)(C)C(=O)N1CCC[C@H]1C(O)(c1ccccc1)c1ccccc1	inconclusive: 31.6 µM [inhibitor, single point]
CCC(C)c1ccccc1NC(=O)c1[nH]c(C)c(C(C)=O)c1C (stereo not drawn)	inconclusive: 5.62 µM [inhibitor, single point]
COc1ccc(-c2c(C#N)c(N)nc3c2c(=O)n(C)c(=O)n3C)cc1	inconclusive: 100 µM [inhibitor, partial curve, poor fit]
Oc1cccc2ccc(/C=C/c3ccc(Br)s3)nc12	inconclusive: 89.1 µM [inhibitor, single point]
COc1cc(C2C(C#N)=C(N)N(N(C)C)C3=C2C(=O)CC(C)(C)C3)cc(OC)c1OC (stereo not drawn)	inconclusive: 7.08 µM [inhibitor, single point]
COc1ccc(/C(N)=N/OC(=O)C2CCCCC2)cc1OC	inactive
CCCCCCSc1ccc([C@H]2N[C@@](Cc3ccccc3)(C(=O)OC)[C@H]3C(=O)N(CC)C(=O)[C@@H]23)cc1	inconclusive: 20 µM [inhibitor, single point]
CCN(C(=O)CSc1nc(-c2cccs2)nc2ccccc12)C1CCS(=O)(=O)C1 (stereo not drawn)	inconclusive: 794 µM [inhibitor, partial curve, poor fit]
COc1ccccc1CNC(=O)COc1ccccc1C(=O)c1cnn(-c2ccccc2)c1	inconclusive: 112 µM [inhibitor, partial curve]
CC(C)c1cc(C(N)=O)c(NC(=O)c2cccc(COc3ccc(Br)cc3)c2)s1	inconclusive: 158 µM [inhibitor, partial curve, poor fit]
CCNC(=O)C(=O)NCC(c1ccc2c(c1)OCO2)N1CCOCC1 (stereo not drawn)	inconclusive: 15.8 µM [inhibitor, single point]

SMILES	Potency
Cc1sc2ncnc(N3CCC(C(=O)Nc4ccc(Br)cc4Br)CC3)c2c1C	inconclusive: 10 µM [inhibitor, single point]
Cc1cc(OCCN2CC(C)OC(C)C2)ccc1[N+](=O)[O-] (stereo not drawn)	inconclusive: 22.4 µM [inhibitor, single point]
CS(=O)(=O)N(CC(=O)N/N=C/c1cc2c(cc1Br)OCO2)c1ccccc1Br	inactive
O=C(CSc1nnc(CNC(=O)c2ccco2)o1)Nc1ccccc1C(F)(F)F	inactive
CCc1nc(Nc2ccc(N3CCN(C(C)=O)CC3)cc2)c2oc3ccccc3c2n1	inactive
CCOc1ccccc1NC(=O)CSc1nnc2ccc(-c3ccncc3)nn12	inconclusive: 100 µM [inhibitor, single point]
O=C1CCC(=O)N(c2ccccc2)N1	inconclusive: 11.2 µM [inhibitor, single point]
CCOC(=O)c1sc(-c2ccc(Br)cc2)cc1N	inconclusive: 126 µM [inhibitor, single point]
NC(=O)c1sc2nc(-c3ccco3)ccc2c1N	inconclusive: 79.4 µM [inhibitor, partial curve]
O=C(NCCc1nc2ccccc2[nH]1)/C(=C/c1ccc2c(c1)OCO2)NC(=O)c1ccccc1Cl	inconclusive: 12.6 µM [inhibitor, single point]
O=C(CNC(=O)N1CC(=O)Nc2ccccc21)Nc1cccc(F)c1	inconclusive: 56.2 µM [inhibitor, single point]
COCCCn1c(CCC(=O)O)ccc1-c1cccs1	inactive
O=C(CSc1nnc(COc2ccc(Cl)cc2)o1)N1CCOCC1	inconclusive: 63.1 µM [inhibitor, single point]
Cc1ccc(-n2c(SCC(=O)OC(C)C)nnc2-c2cnccn2)cc1	inconclusive: 89.1 µM [inhibitor, single point]
Nc1nnc(SCC(=O)Nc2cccnc2Cl)s1	inconclusive: 22.4 µM [inhibitor, single point]
O=C(O)C1=CC(=C(c2ccc(O)c(C(=O)O)c2)c2ccc(O)c(C(=O)O)c2)C=CC1=O	inconclusive: 70.8 µM [inhibitor, partial curve]
C[C@@H]1C(c2ccc(F)cc2)=NN(c2ccc(Br)cc2)[C@H]1C(=O)N1CCOC1=O	inconclusive: 112 µM [inhibitor, partial curve, poor fit]
CCc1c(C)nc(N)n2c(SCC(=O)N3CCCc4ccccc43)nnc12	inconclusive: 56.2 µM [inhibitor, single point]
CCCSc1sc(C(=O)OC)c(-c2cccs2)c1C#N	inconclusive: 63.1 µM [inhibitor, partial curve]
COC(=O)c1ccc(NC(=O)Nc2ccc(F)cc2F)cc1	inactive
CCCCOc1ccccc1NC(=O)c1ccc(=O)[nH]c1	inactive
Cc1ccc2ccc[n+](Cc3ccccc3)c2c1	inconclusive: 100 µM [inhibitor, single point]

Pulled one by one from above:
SMILES	Potency
N#C/C(=C\c1ccc(Cl)cc1)c1nc2ncccc2[nH]1	inactive
O=C(CSc1nnc(CNC(=O)c2c(F)cccc2Cl)o1)NCc1ccccc1	inconclusive: 100 µM [inhibitor, single point]

From PubChem BioAssay AID504842 (National Center for Advancing Translational Sciences (NCATS), 2011)
